Measurements reported in publication PMC7140458.

The chains behind the UniProt entries cited, without tags or fusion partners.
UniProt P15307: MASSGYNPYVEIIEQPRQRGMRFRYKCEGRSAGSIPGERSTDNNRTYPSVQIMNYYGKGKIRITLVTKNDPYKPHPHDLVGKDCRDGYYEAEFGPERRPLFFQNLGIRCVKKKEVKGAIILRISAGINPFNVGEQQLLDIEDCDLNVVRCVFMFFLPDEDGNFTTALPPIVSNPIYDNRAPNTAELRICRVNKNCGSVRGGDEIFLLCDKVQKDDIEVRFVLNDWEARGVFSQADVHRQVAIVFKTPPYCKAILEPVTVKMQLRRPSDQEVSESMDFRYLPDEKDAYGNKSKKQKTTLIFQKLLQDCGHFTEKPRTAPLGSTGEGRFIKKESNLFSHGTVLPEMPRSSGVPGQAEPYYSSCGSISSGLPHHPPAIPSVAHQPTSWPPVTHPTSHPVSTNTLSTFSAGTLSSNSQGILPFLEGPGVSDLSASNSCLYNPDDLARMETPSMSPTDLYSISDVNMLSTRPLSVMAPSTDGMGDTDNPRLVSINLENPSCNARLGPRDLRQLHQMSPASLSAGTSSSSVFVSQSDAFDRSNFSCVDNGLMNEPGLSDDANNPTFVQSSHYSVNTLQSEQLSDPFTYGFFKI
UniProt O35185: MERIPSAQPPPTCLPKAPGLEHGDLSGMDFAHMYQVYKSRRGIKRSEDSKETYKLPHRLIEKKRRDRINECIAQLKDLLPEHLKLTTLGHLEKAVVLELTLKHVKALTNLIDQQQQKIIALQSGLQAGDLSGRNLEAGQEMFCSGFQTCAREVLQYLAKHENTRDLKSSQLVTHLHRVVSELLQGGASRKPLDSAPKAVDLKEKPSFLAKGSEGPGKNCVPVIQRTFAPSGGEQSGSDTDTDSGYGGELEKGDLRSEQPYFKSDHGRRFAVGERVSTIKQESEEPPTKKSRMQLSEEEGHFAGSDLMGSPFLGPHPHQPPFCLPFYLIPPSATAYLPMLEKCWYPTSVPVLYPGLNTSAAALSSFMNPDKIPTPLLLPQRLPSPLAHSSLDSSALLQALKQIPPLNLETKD
UniProt O35253: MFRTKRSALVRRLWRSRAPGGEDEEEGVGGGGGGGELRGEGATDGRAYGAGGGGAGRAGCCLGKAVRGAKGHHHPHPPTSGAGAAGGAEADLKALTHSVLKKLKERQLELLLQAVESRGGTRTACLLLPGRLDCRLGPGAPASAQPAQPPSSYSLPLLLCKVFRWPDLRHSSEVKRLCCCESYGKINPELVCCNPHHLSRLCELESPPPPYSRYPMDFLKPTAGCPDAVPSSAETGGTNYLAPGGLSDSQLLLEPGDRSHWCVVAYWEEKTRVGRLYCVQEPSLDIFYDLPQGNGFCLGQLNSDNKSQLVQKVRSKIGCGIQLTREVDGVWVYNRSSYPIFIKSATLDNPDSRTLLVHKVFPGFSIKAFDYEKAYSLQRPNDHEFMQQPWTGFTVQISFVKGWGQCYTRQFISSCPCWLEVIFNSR

Biological target: Microtubule actin crosslinking factor 1 (MACF1) (mouse (endogenous in MC3T3-E1)) (UniProt Q9QXZ0)
Experiment: affinity purification with mass spectrometry; anti-MACF1 antibody (Abcam ab117418) immunoprecipitation from MC3T3-E1 whole cell lysate in RIPA buffer, Protein A+G agarose; products labelled with iTRAQ and analysed by LC-MS/MS

Molecule: REL (from UniProt P15307 1-587)
binding: binds

B1: HES1 (protein, UniProt P35428 1-282)
chain: MPADIMEKNSSSPVAATPASVNTTPDKPKTASEHRKSSKPIMEKRRRARINESLSQLKTLILDALKKDSSRHSKLEKADILEMTVKHLRNLQRAQMTAALSTDPSVLGKYRAGFSECMNEVTRFLSTCEGVNTEVRTRLLGHLANCMTQINAMTYPGQAHPALQAPPPPPPSGPAGPQHAPFAPPPPPLVPIPGGAAPPPGSAPCKLGSQAGEAAKVFGGFQVVPAPDGQFAFLIPNGAFAHSGPVIPVYTSNSGTSVGPNAVSPSSGSSLTSDSMWRPWRN
binding: binds

Further lines, results first:

binding: binds
Molecule: BHLHE40 (from UniProt O35185 1-411)

binding: binds
Molecule: SMAD family member 7 (SMAD7) (from UniProt O35253 1-426)

Results are given in words; binding and its absence hold for the method and conditions named. In cells and extracts the contact can be indirect. These calls come from enrichment with a bait or labelling near it, and not all partners need be listed. One block for each molecule: values may come before it.
